Laboratory results from paper PMC10313047, “During heat stress in Myxococcus xanthus, the CdbS PilZ domain protein, in concert with two PilZ-DnaK chaperones, perturbs chromosome organization and accelerates cell death” (PLOS Genetics, 2023).
No constants are given. Whether binding was seen depends on the method and setting. In cells and extracts the contact can be indirect. Here binding means that the protein was enriched with, or labelled near, the bait; the list need not be complete. Values belong to the binder of their own block, whether it stands above or below them.

Biological target: CdbS-FLAG (Myxococcus xanthus)
Assay: affinity purification with mass spectrometry; in vivo pull-down from M. xanthus lysate with anti-FLAG M2 magnetic beads, HNN buffer (50mM HEPES pH 7.2, 150mM NaCl, 5mM EDTA, 0.5% NP40), 90min at 4°C; label-free quantitative MS, enrichment against GFP-FLAG (log2 ratio ≥3; P ≤0.005), four biological replicates

binding: binds
B1: GrpS (protein, UniProt P95333 1-255)
chain: MTVIEVEASGPSTPVEAEASASPADTTSPPSDAEATPSEDVAALRQEVESLKAQLEFSQAKGRETMERLREAHERAKEAQERTVRHAADLENYRKRAQKEKEEVQRFGSEKLLKDLLPVMDNLDRAIDAAAKSPDLDSFEKGVAMTRKSFEDALGRHGVKGFSAKGQVFDPRVHEAIQQVETADVPAGHVAYEVVRGFYLNERLVRPAMVVVARAPAEPVAAAEPPAVAEPATATTDTEAPAAPAQSENSSGGSQ

binding: binds
B2: DnaB helicase (protein, UniProt Q1D285 1-456)
chain: MENVHEFREGRKVHEDLAAERAVLGAVLADNTLIAAVGEVVHPEDFSSPAHAQIFEAMLKLDGQSRQVDHLTLAEELKVLGHLVSVGGPAYLMRLDQVVPIASNAVQYAQIVKDQAIRRRLAQAGREIQDLASQETGELEVLLDEAERKVFLLAEKKREGDLRPVSELMEHTLDLLDKMKAAATGITGLSTGYIDLDNQLTGLHAGELIILAARPGIGKTSFAMNIAVHAALKENKAVGIFSLEMPADQLLMRLLASTARVDMKKLRGGRLTPHDEEKFQEMAGALYNAPIYIDDSGGLSPFDLRAKARRVKQRDPRLSLIVIDYLQLMHQKGKVESRQLEVAEISRALKQLAKELEVPIIALSQLSRKVEDRKDGKPLLSDLRESGSIEQDADVVMFIHRETSDEAGPDGQPAQQSNTVIPVELIIAKQRNGPIGSIDLVFLAEYTRFESRSRSE
